The supplement of paper PMC12282887
This continues a long series; more values of the same kind are listed elsewhere.

Tests used:
Experiment in all cases: fitness (OD AUC treated / untreated) (fraction); higher = more growth
E. coli BW25113 DmicF = settings: caffeine concentration 55.4857 µg/ml
Protocol: (§1)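 MIC curves of ciprofloxacin or amoxicillin, with or without 55.5 µg/ml caffeine, against E. coli BW25113 wild type, deletion mutants (ΔmicF, ΔompF, Δrob) and complemented strains. Assays ran in LB at 37°C in 96/384-well plates. Fitness is the OD600 AUC over 8 h divided by the no-drug control; 3-4 biological replicates.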

[1] = tested on: E. coli BW25113 DompF + ompF; settings: antibiotic concentration 0.00682 µg/ml; caffeine concentration 0 µg/ml
Protocol: as §1

E. coli BW25113 DompF = tested on: E. coli BW25113 DompF
Protocol: as §1

[2] = tested on: E. coli BW25113 Drob + rob
Protocol: as §1

O=C(O)c1cn(C2CC2)c2cc(N3CCNCC3)c(F)cc2c1=O [Ciprofloxacin]
E. coli BW25113 DmicF
Settings	fitness
antibiotic concentration 0.00909 µg/ml	0.516
antibiotic concentration 0.01136 µg/ml	0.325
antibiotic concentration 0.01364 µg/ml	0.139
antibiotic concentration 0.01591 µg/ml	0.0821
antibiotic concentration 0.01818 µg/ml	0.04
antibiotic concentration 0.02045 µg/ml	0.0155

Settings	fitness
[1]	0.934

fitness
Settings	caffeine concentration 0 µg/ml	caffeine concentration 55.4857 µg/ml
E. coli BW25113 DompF, antibiotic concentration 0.00682 µg/ml	1.1	1.01
E. coli BW25113 DompF, antibiotic concentration 0.01364 µg/ml	1.01	1.03
E. coli BW25113 DompF, antibiotic concentration 0.02045 µg/ml	0.817	0.776
E. coli BW25113 DompF, antibiotic concentration 0.02727 µg/ml	0.495	0.566
E. coli BW25113 DompF, antibiotic concentration 0.03409 µg/ml	0.214	0.337
E. coli BW25113 DompF, antibiotic concentration 0.04091 µg/ml	0.097	0.216
E. coli BW25113 DompF, antibiotic concentration 0.04773 µg/ml	0.0484	0.0767
E. coli BW25113 DompF, antibiotic concentration 0.05455 µg/ml	0.031	0.0481
E. coli BW25113 DompF, antibiotic concentration 0.06136 µg/ml	0.0281	0.065
E. coli BW25113 DompF, antibiotic concentration 0.06818 µg/ml	0.0295	0.0558
E. coli BW25113 DompF, antibiotic concentration 0.075 µg/ml	0.0232	0.0453
[2], antibiotic concentration 0.00227 µg/ml	1.09	–
[2], antibiotic concentration 0.00455 µg/ml	0.951	0.983
[2], antibiotic concentration 0.00682 µg/ml	0.613	0.826
[2], antibiotic concentration 0.00909 µg/ml	0.219	0.595
[2], antibiotic concentration 0.01136 µg/ml	0.0498	0.259
[2], antibiotic concentration 0.01364 µg/ml	0.0351	0.0964
[2], antibiotic concentration 0.01591 µg/ml	0.0317	0.0528
[2], antibiotic concentration 0.01818 µg/ml	0.0372	0.0395
[2], antibiotic concentration 0.02045 µg/ml	0.0354	0.0361
[2], antibiotic concentration 0.02273 µg/ml	0.0349	0.0354
[2], antibiotic concentration 0.025 µg/ml	0.0306	0.0359
